Laboratory results: PubChem BioAssay AID1508600 (Functional Genomics Laboratory (NCATS/FGL), 2020)
Hit rate of the full screen: of about 53,000 sequences, about 3,700 (7%) were called active.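 How the source made its calls: active means gene knockdowns whose robust z-score for IL-1 alpha signal is at least 2 or at most -2, so actives lie on both sides; inactive means the rest.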 The list shows a part of the results.

Test: Components of the Cytosolic LPS Sensing Pathway: Gene Identification via Genome-wide siRNA Screen;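 further: robust z of the log signal after scaling to non-targeting control siRNA wells of the plate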
Details: RAW264.7 macrophages, IL-1a HTRF, actives lie on both sides, screened at 100 nM (by protocol), cells primed 5 h with Pam3CSK4 first
Method in brief: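 Cells (RAW264.7, 1×10^4 per well) were transfected with siRNA at 100 nM and cultured 48h at 37 degrees C. Pam3CSK4 was added for 5 hours; LipidA transfection followed for 24 hour. IL-1a was then measured by HTRF.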
With CGGGAUAUUAGGUUAUUCCTT against Csad the z-score was inactive: 0.0716. For GGUUUUGAGAUUGAAAGAATT against Myof, the z-score was inactive: -0.344. For CCAGAUUUUUACCAUGAAGTT against Slc2a5, the z-score was inactive: 0.147. In the case of GGCAGCACUAGGACACAUATT against Tnfaip8l2, the z-score is reported as inactive: 0.0928. For GGCAGAGUUUCAAUGAGGUTT against Rras, the z-score was inactive: -1.06. With CGGAGCAAUACAAACUUUATT against Olfr1263 the z-score was inactive: 0.643. With GCUUCCACAACUCAUAAAUTT against Esd the z-score was inactive: -0.0597. In the case of GCUAAUCAACAAUGUCGCCTT against Atp5b, the z-score is reported as inactive: 0.781. With GGCUCUUUCAACGUAAAUUTT against Fan1 the z-score was active: -2.72. In the case of GGAUUUGACACUGCUCCACTT against Arhgef6, the z-score is reported as inactive: 0.0393. In the case of CCUAAACUCAGUGCCUCAGTT against Mrps36, the z-score is reported as inactive: 0.579. In the case of GGUCCUGUAUAAGACAGAATT against Fst, the z-score is reported as inactive: 1.85. In the case of GGCUCAACAAGCUUGUCUATT against Adtrp, the z-score is reported as inactive: -0.557. In the case of GGUCUAUUAUGGCUUAAAGTT against Insl5, the z-score is reported as inactive: -1.93. For GGUGUGGUCCUUGCAUCUUTT against Cyp2d34, the z-score was inactive: 0.763. For GGUGAGAUUUGUGGCUUUATT against Clstn1, the z-score was inactive: 0.521. For CGCCGCAGUAUUAAUGGCUTT against Nxph4, the z-score was inactive: 0.225. For GAAACUAGUCCUACUCUUUTT against Defa1, the z-score was inactive: 0.6. For GCUAUGAACCUCUAGGCAUTT against Bcl6b, the z-score was inactive: 0.136. For GCAGGCUUGUUCAAAUCCGTT against Pcm1, the z-score was inactive: 1.1. In the case of GCGAGGUGCCAAUAUUUUCTT against Btbd9, the z-score is reported as inactive: 2. In the case of CGGGUUGUACCUGAGUCUGTT against Tmem120a, the z-score is reported as inactive: -0.352. With CCCAUAGGGCUGAGGAACATT against Zfp53 the z-score was inactive: -0.905. With GGCUUUAGCUUACCAGAUGTT against Abcd2 the z-score was inactive: -1.25. With “GGAUGGAUCUAAAGACACUTT against 4930544M13Rik” the z-score was inactive: 1.51. In the case of CCAUUAACACCUGUUAAUGTT against Lipt2, the z-score is reported as inactive: 0.255. In the case of GCUGGCCUUUCUAAAAAAATT against Plekhm1, the z-score is reported as inactive: -0.166. With GGGAUCACAUCUUAAGUAATT against Kbtbd12 the z-score was inactive: 1.5. In the case of GGUAUAUCCAUUCCAAAGATT against Osr2, the z-score is reported as inactive: 0.0364. With GGUGGCUCAGAAAUCCUAUTT against Rbpjl the z-score was inactive: -0.206. In the case of GGAAAAGAAUUGUAUACAGTT against Grk4, the z-score is reported as inactive: -0.17. With GGGACAACCUUACAUCGAUTT against Mpz the z-score was inactive: 1.6. For CCGAUCACUCAUGGUUGACTT against Sra1, the z-score was inactive: 0.565. In the case of GCUCAUCCAGAUAAACCCATT against Smg8, the z-score is reported as inactive: -1.94. For CGCGUUUCGUGUUUCAAAATT against Mus81, the z-score was inactive: -0.464. With CCGACACAUCAUGUUGACGTT against Zbtb9 the z-score was inactive: -0.269. In the case of GGAAAAAGGCAUCAAGUAUTT against Dhfr, the z-score is reported as inactive: -0.0787. With CCACUUGCGUGUACCACUUTT against Adtrp the z-score was inactive: 1.92. For CCCAAUCUCCAUCUAUGCCTT against Podxl, the z-score was inactive: -0.0416. With GGAAUUUUUUCUUGAUGGATT against Tubgcp5 the z-score was inactive: -0.645. With GGUGGUCUACAAGACAGUATT against Ces2a the z-score was inactive: -0.442. In the case of GGAGUGUUACUAGAUGUCCTT against Spns3, the z-score is reported as inactive: 0.394. With GGCUGACAAAGAAGAAGCCTT against Dmrta2 the z-score was inactive: -1.26. In the case of CCCAGUUUAAGCACUUACATT against Lefty2, the z-score is reported as inactive: 0.205. For GGAGCUGUACUCCAAGAAGTT against Oscp1, the z-score was inactive: -1.08. In the case of CCAUCAGGACUCGUGAAUGTT against Fign, the z-score is reported as active: -2.09. With GGCAACACGUUGAUUGUUGTT against Olfr750 the z-score was inactive: 0.282. For GGGACAAGAAACUGGCUCUTT against Olfr1339, the z-score was inactive: 0.968. For GGGCAGAAUUACGAAAGUATT against Smc2, the z-score was inactive: -1.73. With GCACAGUUGCUUUACAUCGTT against Psca the z-score was inactive: 1.04. With GGAGUUGUGUCCCAGAUUGTT against Pkd2l1 the z-score was inactive: 1.84. In the case of GGUAAUGGUCAAAUUUGAUTT against Ahsg, the z-score is reported as inactive: 0.0813. For GCUCCUAAGUAAAAUGGUATT against Ccdc71l, the z-score was inactive: -0.273. In the case of “GGGUAUUAAGCAGGGAUCGTT against 1810009A15Rik”, the z-score is reported as inactive: 1.11. For GGAGGGCUCACAUUGUACATT against Nckap5, the z-score was inactive: 0.988. In the case of GCAGGUACUAUUUGUGACGTT against Olfr30, the z-score is reported as inactive: 1.07. In the case of CCAGUGUUUCUCACUAAAUTT against Ube2j1, the z-score is reported as inactive: 0.873. For GGAAAACAAUCUCCUUCAATT against Olfr1260, the z-score was inactive: 1.42. For GGAGAACAUUGUUAUCUCGTT against Ngef, the z-score was inactive: 0.988. In the case of GGUCAAAACUUCCAAUUGATT against Hmx3, the z-score is reported as inactive: -0.578. With GGCACUAAAGCCAAAGUUCTT against Cldn11 the z-score was inactive: -0.616. With GGGAGCAACAGAGAGCUUUTT against Olfr212 the z-score was inactive: 1.18. With CCAGAAUACUGGGAUACAATT against B4galnt3 the z-score was inactive: -0.577. For GGAAAACUCCUCCUUAAUUTT against Wsb1, the z-score was inactive: 0.727. With GGAAGACCUGAUUGGAAAATT against Trpm1 the z-score was inactive: 0.372. With GGGACAUGAAGGACACCAUTT against Olfr854 the z-score was inactive: -0.75. In the case of GGAAGAUGUGAUUUAUGACTT against Arhgef10l, the z-score is reported as inactive: -1.84. With GGACCUUAAGAAAACAAUGTT against Xiap the z-score was inactive: 0.712.
